Converted amounts (≈) assume the structure as drawn. Read-outs that look alike come from different tables or passages of the source.
Assays:
A549 cells [1] = assay: MTT cell viability, antiproliferative action on A549 cells; assay type: cell-based; settings: Homo sapiens, A549, 72 h
Procedure, shortened: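 A549 cells in DMEM with 10% FBS and 1% penicillin-streptomycin (37 °C, 5% CO₂) were grown to 90% confluence, seeded at 2.5 × 10⁴ cells/mL in 96-well plates and left 24 h. Dosing solutions at 25, 50 and 100 µg/mL in PBS/0.2% DMSO were added in triplicate, followed by 72 h incubation. MTT (5 mg/mL) was added for 4 h, then acid-isopropanol overnight. A570/620 was read; viability was blank-corrected relative to untreated controls.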

A549 cells [2] = settings: PTX on A549 cells; cited from earlier work

IC50 (A549 cells [1]): 0.96 µg/mL (≈ 1.12 µM)
SMILES: CC(=O)O[C@H]1C(=O)[C@@]2(C)[C@H]([C@H](OC(=O)c3ccccc3)[C@]3(O)C[C@H](OC(=O)[C@H](O)[C@@H](NC(=O)c4ccccc4)c4ccccc4)C(C)=C1C3(C)C)[C@]1(OC(C)=O)CO[C@@H]1C[C@@H]2O [PTX, paclitaxel]
IC50 (A549 cells [2]): 0.9 µg/mL (≈ 1.05 µM)
